# Experimental data published in PubChem BioAssay AID1347076 (National Center for Advancing Translational Sciences (NCATS), 2019).
# Screen size: about 400,000 compounds; about 13,000 (3.2%) were called active. The shares of active, inactive and inconclusive entries below differ from those in the screen. The call rests on the fitted dose curve; in most records, active means well fitted cell-killing curve with a large enough effect; inconclusive means small, poorly fitted or top-dose-only effect, or effect the other way; inactive means flat fitted curve, though single readings scatter. Where the call is inconclusive, the potency comes from a doubtful curve fit.
# Assay: qHTS assay for MDR1-selective chemotherapeutics: Primary screen using the drug-selected MDR subline cells KB-V1; further: nearly all actives have a fitted effect of over 60% in size
# Settings: KB-V1 MDR cells viability, CellTiter-Glo, 72 h; activity change, negative = cytotoxicity: at 46.1 µM (top of the series)
# Outline: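 KB-V1, DMEM (no phenol red) + 10% FBS; cpd pin-transferred, titration series; 72 h, 37 degrees C; CellTiter-Glo, luminescence. Data normalized, curve-fit.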
# On the % scale 0 is the no-effect control and ±100 the full control effect; potency means the concentration at half of the fitted maximal effect.
SMILES,Potency,"activity change, negative = cytotoxicity"
COc1ccc(S(=O)(=O)Cc2ccc(C(=O)N3CCN(c4cccc(C)c4C)CC3)o2)cc1,"inconclusive: 29.1 µM [cytotoxic, single point]",
Cc1cccc(N2CCN(C(=O)c3cccc(N4C(=O)C5C6C=CC(C6)C5C4=O)c3)CC2C)c1 (stereo not drawn),"inconclusive: 0.517 µM [cytotoxic, full curve, poor fit]",
CCOc1ccc(/C=C/C(=O)Oc2ccc(OC)cc2)cc1,"inconclusive: 4.61 µM [rising, partial curve, poor fit]",
O=C(CCc1nnc(Cc2ccc(-c3ccccc3)cc2)o1)NCC1CC1,"inconclusive: 29.1 µM [rising, single point]",
COc1ccccc1NC(=O)CSc1ccc(-c2ccccn2)nn1,"inconclusive: 4.11 µM [cytotoxic, full curve]",
CCN(CC)CC(=O)N1c2ccccc2Sc2ccccc21,,inactive: -0.655%
CCN(CC)C(=O)[C@H]1C[C@H](CC(=O)NCc2ccco2)C(=O)N2CCc3c([nH]c4cc(-c5ccco5)ccc34)[C@]12C,,inactive: 11.8%
CCCNC(=O)C1CCN(C(=O)N2CC(C)Oc3ccccc32)CC1 (stereo not drawn),,inactive: 14.8%
CCn1ccc2cc(S(=O)(=O)N3CCCN(C(=O)Nc4cccc(SC)c4)CC3)ccc21,"inconclusive: 7.31 µM [cytotoxic, partial curve]",
CC(=O)Nc1ccc(-c2ccnc3c2CC(C)(C(=O)Nc2ccc(Cl)c(C(F)(F)F)c2)O3)cc1 (stereo not drawn),"inconclusive: 29.1 µM [cytotoxic, single point]",
Cc1ccc(NC(=O)Cn2cc(C(=O)c3ccco3)c3ccccc32)cc1C,"inconclusive: 29.1 µM [cytotoxic, single point]",
COc1ccc(N(C)C(=O)c2ccc3nc(-c4ccccc4)c(-c4ccccc4)nc3c2)cc1,active: 20.6 µM,
COC(=O)Cc1cccc2c(=O)c3ccccc3oc12,"inconclusive: 29.1 µM [rising, single point]",
O=C(Nc1sc2c(c1C(=O)O)CCCC2)c1cccs1,,inactive: -41%
O=C(N/N=C/c1cccnc1)c1ccc(Cn2cc([N+](=O)[O-])cn2)o1,"inconclusive: 29.1 µM [rising, single point]",
Cc1cc(Oc2ccc(Cl)cc2)nc(SCC(=O)c2ccccc2)n1,"inconclusive: 32.6 µM [cytotoxic, single point]",
CCOc1ccc(N(C(=O)CNC(=O)c2ccco2)C(C(=O)NC2CCCC2)c2ccco2)cc1 (stereo not drawn),"inconclusive: 11.6 µM [cytotoxic, partial curve, poor fit]",
O=C(NCCN1CCOCC1)c1cc(-c2ccc(Cl)cc2Cl)on1,"inconclusive: 13 µM [cytotoxic, partial curve]",
Cc1ccc(CNC(=O)C2CCC(CNS(=O)(=O)c3ccc(C)cc3)CC2)cc1 (stereo not drawn),"inconclusive: 0.0651 µM [rising, full curve]",
CCN(CC)S(=O)(=O)c1cc(NC(=O)C2CCN(c3ncnc4sc(C)c(C)c34)CC2)ccc1Cl,"inconclusive: 4.61 µM [cytotoxic, partial curve, poor fit]",
Cc1ccc(Cl)cc1N(C)C(=O)c1cc2c(Cl)nc3ccccc3c2s1,,inactive: -18.6%
COC(=O)C1=C(C(=O)OC)[C@]2([C@H]3CCCCN[C@@H](Cc4ccccc4)C(=O)N3Cc3ccccc3)C=C[C@H]1O2,"inconclusive: 29.1 µM [cytotoxic, single point]",
NS(=O)(=O)c1ccc(N=Nc2c(-c3ccccc3)[nH]n(-c3nc(-c4ccccc4)cs3)c2=O)cc1,active: 20.6 µM,

SMILES,Potency,"activity change, negative = cytotoxicity"
COc1ccc(N2CCN(C3(c4ccccc4)C(=O)c4ccccc4C3=O)CC2)cc1,,inactive: -14%
Cc1ccc(Cn2c(CO)cnc2SCC(=O)NCc2ccccc2Cl)cc1,,inactive: -23.4%
COc1ccc(NC(=O)C2(C)CCN2C(=O)Cc2ccc(Cl)cc2Cl)cc1OC (stereo not drawn),"inconclusive: 32.6 µM [cytotoxic, single point]",
NC(=O)C1CCN(c2nc(-c3ccccc3)nc3c2oc2ccccc23)CC1,"inconclusive: 9.2 µM [cytotoxic, single point]",
Cn1nc(C(F)(F)F)c(-c2ccccc2)c1NC(=O)CSCC(=O)O,"inconclusive: 29.1 µM [rising, single point]",
CCOC(=O)c1ccc(NC(=S)NCCCN2CCCCC2)cc1,"inconclusive: 9.2 µM [cytotoxic, partial curve]",
CCOC(=O)C1C(c2cccc([N+](=O)[O-])c2)C2C(=O)NN=C2CC1(C)O (stereo not drawn),,inactive: -7.2%
Cc1ccc(NS(=O)(=O)c2ccc(OCC(=O)NCc3ccco3)cc2)cc1,"inconclusive: 20.6 µM [cytotoxic, single point]",
Cc1ccccc1NC(=O)CNc1ccccc1N1CCCCC1,"inconclusive: 20.6 µM [cytotoxic, partial curve, poor fit]",
COc1cc(CN(C2CC2)S(=O)(=O)c2ccccc2Br)cc(OC)c1,,inactive: -6.32%
CN(Cc1ccccc1)C(=O)c1ccc([N+](=O)[O-])o1,"inconclusive: 29.1 µM [cytotoxic, single point]",
CCOC(=O)c1c(CN2CCN(C)CC2)n(C)c2cc(Br)c(OC)cc12,"inconclusive: 23.1 µM [cytotoxic, single point]",
COc1ccc2nc(NC(=O)C3CCN(S(=O)(=O)c4cccc5nsnc45)CC3)sc2c1,active: 1.64 µM,
Cc1nn(C)c(C)c1NC(=O)c1ccc(Cl)cc1,"inconclusive: 29.1 µM [rising, partial curve, poor fit]",
CCCCCSc1nnc(-c2ccccc2NC(C)=O)c(=O)[nH]1,"inconclusive: 20.6 µM [rising, partial curve, poor fit]",
CCCCCCC1CC(=O)NC(=O)N1 (stereo not drawn),"inconclusive: 13 µM [rising, partial curve, poor fit]",
O=C1c2cc(Cl)ccc2-c2c(O)cc(Cl)cc21,"inconclusive: 25.9 µM [cytotoxic, single point]",
c1ccc(-c2c[nH]c3[n+]2CCCCC3)cc1,"inconclusive: 29.1 µM [cytotoxic, single point]",
COc1ccc(C)cc1N1CC(C(=O)Nc2ccccc2C(=O)NC2CC2)CC1=O (stereo not drawn),,inactive: 11.8%
CCCCn1c(N)c(N(CC(C)C)C(=O)c2ccc(-c3ccc(Cl)cc3)o2)c(=O)[nH]c1=O,"inconclusive: 25.9 µM [rising, single point]",
O=C(Nc1ccccc1Oc1cccnc1)C1CCCN(Cc2ccccc2O)C1 (stereo not drawn),,inactive: 8.18%
CC1(CCC(=O)O)C(=O)CCC2C1CCC1(C)C2CCC1(C)O (stereo not drawn),"inconclusive: 32.6 µM [cytotoxic, partial curve, poor fit]",
COCCN(C(=O)CSc1nnc(-c2ccc(C)cc2)n1N)c1c(N)n(Cc2ccccc2)c(=O)[nH]c1=O,,inactive: 10.8%

SMILES,Potency,"activity change, negative = cytotoxicity"
CC(C)C1N=C2c3ccccc3N=C(SCc3cc(=O)n4cc(Cl)ccc4n3)N2C1=O (stereo not drawn),active: 23.1 µM,
CCCCc1ccc(-c2csc(/C(C#N)=C\c3ccco3)n2)cc1,,inactive: -11.1%
COc1ccc(N2C(=O)CSC23C(=O)N(CC(=O)Nc2ccccc2F)c2ccccc23)cc1 (stereo not drawn),,inconclusive: -2.35%
CC(C)N(Cc1nc(-c2ccc3c(c2)OCO3)no1)CC1CCC(=O)N1 (stereo not drawn),"inconclusive: 23.1 µM [cytotoxic, single point]",
COc1cccc(C=C(C(C)=O)C(=O)c2ccccc2)c1,"inconclusive: 23.1 µM [cytotoxic, single point]",
COC(=O)c1ccc(Nc2nc(-c3ccccc3Cl)nc3ccccc23)cc1,"inconclusive: 29.1 µM [cytotoxic, single point]",
O=C(N/N=C\c1cc2c(cc1Cl)OCO2)c1cccnc1,"inconclusive: 29.1 µM [rising, single point]",
Cc1[nH]c2ccc(C(=O)Nc3ccncc3)cc2c1C,,inactive: -6.98%
Cc1ccc(S(=O)(=O)N(CC(=O)Nc2ccccc2C(=O)O)c2ccccc2C)cc1,,inactive: 1.63%
O=C(c1ccc(Cl)c(S(=O)(=O)N2CCCCC2)c1)N1CCCC(C(F)(F)F)C1 (stereo not drawn),,inactive: -25.3%
COc1ccc(/C=C/C(=O)NCC(=O)n2nc(C)cc2C)cc1,,inactive: 22.1%
Cc1ccc(Cc2c(-c3ccc(C)cc3)nc3ccc(Br)cn23)cc1,,inactive: -23.8%
NNC(=O)c1csc(-c2ccc(C(F)(F)F)cc2Cl)n1,"inconclusive: 23.1 µM [cytotoxic, single point]",
NS(=O)(=O)c1ccc(NC(=O)CN2CCN(S(=O)(=O)c3ccc(F)cc3)CC2)cc1,"inconclusive: 29.1 µM [rising, single point]",
CC(=O)c1ccc(C(=O)N2CCCC(CO)(Cc3ccccc3C)C2)s1 (stereo not drawn),"inconclusive: 29.1 µM [cytotoxic, single point]",
CC(=O)Nc1ccc2c(c1)-c1ccc(F)cc1C2=O,,inconclusive: 0.0566%
O=C(CCCN1C(=O)/C(=C/c2ccccc2Cl)SC1=S)Nc1ccccn1,"inconclusive: 25.9 µM [cytotoxic, single point]",
CN(C)c1ccc(/C=C/c2ccnc3ccc([N+](=O)[O-])cc23)cc1,,inactive: -6.74%
CN(C)c1ccc(NC(=O)c2cc3c(=O)n4ccccc4nc3n2C)cc1,"inconclusive: 2.31 µM [cytotoxic, full curve]",
CCc1cccc(CC)c1NC(=O)COC(=O)CCc1cc(OC)c(OC)c(OC)c1,"inconclusive: 20.6 µM [rising, single point]",
O=C(COc1ccc(C(=O)NCC2CCCO2)cc1)Nc1cccc(C(F)(F)F)c1 (stereo not drawn),,inactive: -4.98%
CCCCCCCCCC[n+]1ccc(/C=C/c2c[nH]c3ccccc23)c2ccccc21,"inconclusive: 16.4 µM [cytotoxic, single point]",

# Quoted at random: six records from the list, in no set order.
SMILES,Potency,"activity change, negative = cytotoxicity"
CCOC(=O)C1C(c2cccc([N+](=O)[O-])c2)C2C(=O)NN=C2CC1(C)O (stereo not drawn),,inactive: -7.2%
COC(=O)Cc1cccc2c(=O)c3ccccc3oc12,"inconclusive: 29.1 µM [rising, single point]",
c1ccc(-c2c[nH]c3[n+]2CCCCC3)cc1,"inconclusive: 29.1 µM [cytotoxic, single point]",
CCn1ccc2cc(S(=O)(=O)N3CCCN(C(=O)Nc4cccc(SC)c4)CC3)ccc21,"inconclusive: 7.31 µM [cytotoxic, partial curve]",
CC(=O)c1ccc(C(=O)N2CCCC(CO)(Cc3ccccc3C)C2)s1 (stereo not drawn),"inconclusive: 29.1 µM [cytotoxic, single point]",
COc1ccc(N2C(=O)CSC23C(=O)N(CC(=O)Nc2ccccc2F)c2ccccc23)cc1 (stereo not drawn),,inconclusive: -2.35%
